No constants are given. Whether binding was seen depends on the method and setting. In cells and extracts the contact can be indirect. Some entries that bind do so weakly or less than the wild type.

The chains behind the UniProt entries cited, without tags or fusion partners. Where a name states a change or a piece, a line headed by the entry shows the natural chain unless it says otherwise. Residues count along the entry.
UniProt P10361: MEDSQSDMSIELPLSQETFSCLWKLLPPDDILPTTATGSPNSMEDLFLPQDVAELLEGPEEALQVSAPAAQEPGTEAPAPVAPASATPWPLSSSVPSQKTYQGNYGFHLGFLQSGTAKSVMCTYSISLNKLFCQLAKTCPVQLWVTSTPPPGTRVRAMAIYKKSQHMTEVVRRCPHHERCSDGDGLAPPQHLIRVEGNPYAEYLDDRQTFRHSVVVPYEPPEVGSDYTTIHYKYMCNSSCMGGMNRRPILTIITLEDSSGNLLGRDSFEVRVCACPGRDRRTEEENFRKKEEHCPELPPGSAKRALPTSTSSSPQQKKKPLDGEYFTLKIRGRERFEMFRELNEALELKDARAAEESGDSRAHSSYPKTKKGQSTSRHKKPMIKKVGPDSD
UniProt P04406: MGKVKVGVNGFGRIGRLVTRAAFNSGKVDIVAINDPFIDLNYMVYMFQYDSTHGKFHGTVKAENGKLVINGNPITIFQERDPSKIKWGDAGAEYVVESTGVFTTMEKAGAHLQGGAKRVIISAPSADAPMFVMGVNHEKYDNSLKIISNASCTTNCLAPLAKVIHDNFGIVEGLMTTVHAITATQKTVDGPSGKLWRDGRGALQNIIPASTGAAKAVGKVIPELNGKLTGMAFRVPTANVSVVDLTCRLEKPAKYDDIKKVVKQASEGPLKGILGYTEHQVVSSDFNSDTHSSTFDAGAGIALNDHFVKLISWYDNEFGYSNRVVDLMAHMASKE
GST-GAPDH2-2-1-1 (I221-E250): residues 221-250 of P04406
UniProt P04797: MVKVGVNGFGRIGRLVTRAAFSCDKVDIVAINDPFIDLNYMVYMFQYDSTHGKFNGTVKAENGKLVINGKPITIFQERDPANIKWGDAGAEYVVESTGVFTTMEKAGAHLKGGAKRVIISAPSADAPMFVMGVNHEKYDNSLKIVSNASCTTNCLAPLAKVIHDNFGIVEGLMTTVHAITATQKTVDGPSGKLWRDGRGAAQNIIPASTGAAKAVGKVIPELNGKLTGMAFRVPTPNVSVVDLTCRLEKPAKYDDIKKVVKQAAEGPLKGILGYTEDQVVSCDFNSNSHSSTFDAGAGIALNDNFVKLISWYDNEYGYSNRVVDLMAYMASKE

Test [1] addresses p53, endogenous, rat brain nuclear extracts (rat (endogenous in hippocampus and cortex)) (UniProt P10361). Briefly: co-IP; p53 antibody (polyclonal, Abcam) with protein A/G agarose; solubilized nuclear proteins from rat hippocampal slices with/without glutamate treatment; Western blot for GAPDH.
Test [2] deals with GST-fusion protein encoding GAPDH (GST-GAPDH) (UniProt P04406). The test is described as follows: pull-down; GST-fusion proteins (50 μg) on glutathione-sepharose beads incubated with solubilized nuclear extracts (800 μg protein) at room temperature for 1 hour; Western blot for p53; only the target purified. Background: In western blotting, separated proteins are transferred to a membrane and probed.

Test [3] deals with GST-GAPDH2-2-1-1 (I221-E250) (UniProt P04406). The description is as above.

On to “Glyceraldehyde 3-phosphate dehydrogenase (GAPDH), endogenous, rat brain nuclear extracts (from UniProt P04797 1-333)”, for which the binding result in test [1] is on record as “binds”.

As to “p53, endogenous, rat brain nuclear extracts (from UniProt P10361 1-391)”, the binding result in test [2] and in test [3] was “binds” each time.

The values are drawn from publication PMC3986870.
